{
  "source": "patent US7919268B2",
  "about": "“Reducing sample turbidity in measurement of enzymatic activity in cell lysates” (Roche Diagnostics Operations, Inc., priority 2005, dated 2011)",
  "test_system": "LDH",
  "test": "Measurement of different amounts of released LDH in the presence of high amounts of cells with detergent solutions",
  "assay_type": "biochemical, human",
  "conditions": "for Absorption after 5 min (measurement after 5 days) / Absorption after 5 min, measurement 10 min after terminating the reaction / Absorption after 30 min (measurement after 5 days) / Absorption after 30 min, measurement 10 min after terminating the reaction: 492 nm, 150,000 U 937 cells added, blank subtracted; for Absorption after 5 min (measurement after 5 days) / Absorption after 5 min, measurement 10 min after terminating the reaction / Absorption after 30 min (measurement after 5 days) / Absorption after 30 min, measurement 10 min after terminating the reaction / Stability of the measured values (signal) over 5 days: detergent 1% (v/v); for Stability of the measured values (signal) over 5 days: reduced INT colour substrate; for Absorption of the reduced INT substrate (in words): cationic detergents",
  "note": "“Also recorded” adds a separate entry of the source.",
  "data": [
    {"molecule": "CCCCCCCCCCCCOS(=O)(=O)[O-].[Na+]", "note": "[SDS, sodium dodecyl sulphate]", "values": [
      {"measurement": "Absorption after 5 min (measurement after 5 days)", "setting": "lysate of 0 cells", "result": "(0.000)"},
      {"measurement": "Absorption after 5 min, measurement 10 min after terminating the reaction", "setting": "lysate of 0 cells", "result": 0.000},
      {"measurement": "Absorption after 30 min (measurement after 5 days)", "setting": "lysate of 0 cells", "result": "(0.000)"},
      {"measurement": "Absorption after 30 min, measurement 10 min after terminating the reaction", "setting": "lysate of 0 cells", "result": 0.000},
      {"measurement": "Absorption after 5 min (measurement after 5 days)", "setting": "lysate of 1 000 cells", "result": "(0.000)"},
      {"measurement": "Absorption after 5 min, measurement 10 min after terminating the reaction", "setting": "lysate of 1 000 cells", "result": 0.000},
      {"measurement": "Absorption after 30 min (measurement after 5 days)", "setting": "lysate of 1 000 cells", "result": "(0.000)"},
      {"measurement": "Absorption after 30 min, measurement 10 min after terminating the reaction", "setting": "lysate of 1 000 cells", "result": 0.007},
      {"measurement": "Absorption after 5 min (measurement after 5 days)", "setting": "lysate of 10 000 cells", "result": "(0.000)"},
      {"measurement": "Absorption after 5 min, measurement 10 min after terminating the reaction", "setting": "lysate of 10 000 cells", "result": 0.011},
      {"measurement": "Absorption after 30 min (measurement after 5 days)", "setting": "lysate of 10 000 cells", "result": "(0.000)"},
      {"measurement": "Absorption after 30 min, measurement 10 min after terminating the reaction", "setting": "lysate of 10 000 cells", "result": 0.078},
      {"measurement": "Absorption after 5 min (measurement after 5 days)", "setting": "lysate of 50 000 cells", "result": "(0.008)"},
      {"measurement": "Absorption after 5 min, measurement 10 min after terminating the reaction", "setting": "lysate of 50 000 cells", "result": 0.093},
      {"measurement": "Absorption after 30 min (measurement after 5 days)", "setting": "lysate of 50 000 cells", "result": "(0.021)"},
      {"measurement": "Absorption after 30 min, measurement 10 min after terminating the reaction", "setting": "lysate of 50 000 cells", "result": 0.364},
      {"measurement": "Stability of the measured values (signal) over 5 days", "setting": "sulphate", "result": "rapid loss in absorption; also recorded: destabilizing effect"}
    ]},
    {"molecule": "CCCCCCCCCCCCCCCC[N+](C)(C)C.[Br-]", "note": "[CTAB, cetyltrimethylammonium bromide]", "values": [
      {"measurement": "Absorption after 5 min (measurement after 5 days)", "setting": "lysate of 0 cells", "result": "(0.000)"},
      {"measurement": "Absorption after 5 min, measurement 10 min after terminating the reaction", "setting": "lysate of 0 cells", "result": 0.000},
      {"measurement": "Absorption after 30 min (measurement after 5 days)", "setting": "lysate of 0 cells", "result": "(0.000)"},
      {"measurement": "Absorption after 30 min, measurement 10 min after terminating the reaction", "setting": "lysate of 0 cells", "result": 0.000},
      {"measurement": "Absorption after 5 min (measurement after 5 days)", "setting": "lysate of 1 000 cells", "result": "(0.002)"},
      {"measurement": "Absorption after 5 min, measurement 10 min after terminating the reaction", "setting": "lysate of 1 000 cells", "result": 0.001},
      {"measurement": "Absorption after 30 min (measurement after 5 days)", "setting": "lysate of 1 000 cells", "result": "(0.004)"},
      {"measurement": "Absorption after 30 min, measurement 10 min after terminating the reaction", "setting": "lysate of 1 000 cells", "result": 0.010},
      {"measurement": "Absorption after 5 min (measurement after 5 days)", "setting": "lysate of 10 000 cells", "result": "(0.021)"},
      {"measurement": "Absorption after 5 min, measurement 10 min after terminating the reaction", "setting": "lysate of 10 000 cells", "result": 0.036},
      {"measurement": "Absorption after 30 min (measurement after 5 days)", "setting": "lysate of 10 000 cells", "result": "(0.077)"},
      {"measurement": "Absorption after 30 min, measurement 10 min after terminating the reaction", "setting": "lysate of 10 000 cells", "result": 0.084},
      {"measurement": "Absorption after 5 min (measurement after 5 days)", "setting": "lysate of 50 000 cells", "result": "(0.085)"},
      {"measurement": "Absorption after 5 min, measurement 10 min after terminating the reaction", "setting": "lysate of 50 000 cells", "result": 0.095},
      {"measurement": "Absorption after 30 min (measurement after 5 days)", "setting": "lysate of 50 000 cells", "result": "(0.63)"},
      {"measurement": "Absorption after 30 min, measurement 10 min after terminating the reaction", "setting": "lysate of 50 000 cells", "result": 0.72},
      {"measurement": "Absorption of the reduced INT substrate (in words)", "result": "increased"},
      {"measurement": "Stability of the measured values (signal) over 5 days", "result": "very stable; also recorded: almost stable"}
    ]},
    {"molecule": "CCCCCCCCCCCC[N+](C)(C)C.[Br-]", "note": "[DTAB, dodecyltrimethylammonium bromide]", "values": [
      {"measurement": "Absorption after 5 min (measurement after 5 days)", "setting": "lysate of 0 cells", "result": "(0.000)"},
      {"measurement": "Absorption after 5 min, measurement 10 min after terminating the reaction", "setting": "lysate of 0 cells", "result": 0.000},
      {"measurement": "Absorption after 30 min (measurement after 5 days)", "setting": "lysate of 0 cells", "result": "(0.000)"},
      {"measurement": "Absorption after 30 min, measurement 10 min after terminating the reaction", "setting": "lysate of 0 cells", "result": 0.000},
      {"measurement": "Absorption after 5 min (measurement after 5 days)", "setting": "lysate of 1 000 cells", "result": "(0.002)"},
      {"measurement": "Absorption after 5 min, measurement 10 min after terminating the reaction", "setting": "lysate of 1 000 cells", "result": 0.002},
      {"measurement": "Absorption after 30 min (measurement after 5 days)", "setting": "lysate of 1 000 cells", "result": "(0.005)"},
      {"measurement": "Absorption after 30 min, measurement 10 min after terminating the reaction", "setting": "lysate of 1 000 cells", "result": 0.008},
      {"measurement": "Absorption after 5 min (measurement after 5 days)", "setting": "lysate of 10 000 cells", "result": "(0.026)"},
      {"measurement": "Absorption after 5 min, measurement 10 min after terminating the reaction", "setting": "lysate of 10 000 cells", "result": 0.034},
      {"measurement": "Absorption after 30 min (measurement after 5 days)", "setting": "lysate of 10 000 cells", "result": "(0.069)"},
      {"measurement": "Absorption after 30 min, measurement 10 min after terminating the reaction", "setting": "lysate of 10 000 cells", "result": 0.075},
      {"measurement": "Absorption after 5 min (measurement after 5 days)", "setting": "lysate of 50 000 cells", "result": "(0.082)"},
      {"measurement": "Absorption after 5 min, measurement 10 min after terminating the reaction", "setting": "lysate of 50 000 cells", "result": 0.88},
      {"measurement": "Absorption after 30 min (measurement after 5 days)", "setting": "lysate of 50 000 cells", "result": "(0.99)"},
      {"measurement": "Absorption after 30 min, measurement 10 min after terminating the reaction", "setting": "lysate of 50 000 cells", "result": 0.70},
      {"measurement": "Absorption of the reduced INT substrate (in words)", "result": "increased"},
      {"measurement": "Stability of the measured values (signal) over 5 days", "result": "very stable; also recorded: almost stable"}
    ]},
    {"molecule": "octylphenoxypolyethoxyethanol [Triton X100]", "values": [
      {"measurement": "Absorption after 5 min (measurement after 5 days)", "setting": "lysate of 0 cells", "result": "(0.000)"},
      {"measurement": "Absorption after 5 min, measurement 10 min after terminating the reaction", "setting": "lysate of 0 cells", "result": 0.000},
      {"measurement": "Absorption after 30 min (measurement after 5 days)", "setting": "lysate of 0 cells", "result": "(0.000)"},
      {"measurement": "Absorption after 30 min, measurement 10 min after terminating the reaction", "setting": "lysate of 0 cells", "result": 0.000},
      {"measurement": "Absorption after 5 min (measurement after 5 days)", "setting": "lysate of 1 000 cells", "result": "(0.001)"},
      {"measurement": "Absorption after 5 min, measurement 10 min after terminating the reaction", "setting": "lysate of 1 000 cells", "result": 0.003},
      {"measurement": "Absorption after 30 min (measurement after 5 days)", "setting": "lysate of 1 000 cells", "result": "(0.001)"},
      {"measurement": "Absorption after 30 min, measurement 10 min after terminating the reaction", "setting": "lysate of 1 000 cells", "result": 0.006},
      {"measurement": "Absorption after 5 min (measurement after 5 days)", "setting": "lysate of 10 000 cells", "result": "(0.035)"},
      {"measurement": "Absorption after 5 min, measurement 10 min after terminating the reaction", "setting": "lysate of 10 000 cells", "result": 0.038},
      {"measurement": "Absorption after 30 min (measurement after 5 days)", "setting": "lysate of 10 000 cells", "result": "(0.065)"},
      {"measurement": "Absorption after 30 min, measurement 10 min after terminating the reaction", "setting": "lysate of 10 000 cells", "result": 0.078},
      {"measurement": "Absorption after 5 min (measurement after 5 days)", "setting": "lysate of 50 000 cells", "result": "(0.093)"},
      {"measurement": "Absorption after 5 min, measurement 10 min after terminating the reaction", "setting": "lysate of 50 000 cells", "result": 0.101},
      {"measurement": "Absorption after 30 min (measurement after 5 days)", "setting": "lysate of 50 000 cells", "result": "(0.150)"},
      {"measurement": "Absorption after 30 min, measurement 10 min after terminating the reaction", "setting": "lysate of 50 000 cells", "result": 0.338},
      {"measurement": "Stability of the measured values (signal) over 5 days", "result": "decreased considerably"}
    ]}
  ]
}
